The list is a part of this screen's results and no random one: it gathers tests that were run many times, whatever their T/C, doses with no T/C, and many T/C values between a quarter and a half above the control. Other doses and runs of a compound stand elsewhere. T/C: endpoint of the treated group in % of that of the vehicle group. Some entries give survivors of the animals treated and no T/C: the source files T/C as zero there, which appears to mark a toxic dose or a test without result, not a measured value. Some survivor counts are full or nearly so, which does not show that the dose was tolerated: the source hardly ever lists a survival T/C far under the control, and the zero likely stands for such cases as well. Survivors were counted at the toxicity check, usually on the fifth day, unless a day is given; later deaths do not show. Schedules are NCI's codes, taken here to give the interval after Q, in days (D) or hours (H), and the number of doses after X. Some entries were tested several times; their values stand side by side, smallest first. For survival time, the PubChem record calls one and a half times the control and up active, and a quarter to a half above the control has no call in these data; cut-offs in other NCI protocols can differ. Some T/C values carry the count of animals alive at the toxicity check (mostly the fifth day); without a count, all were alive then.
Tested on: L1210 leukemia ip in BDF1 mice, survival T/C
Experiment: NCI In Vivo Anticancer Drug Screen. Data for tumor model L1210 Leukemia (intraperitoneal) in B6D2F1 (BDF1) mice
Settings: T/C endpoint: mean survival time, higher T/C = longer survival
[1] = dose: 100.0 mg/kg/injection, schedule: Q04DX003 (ip), vehicle: saline
[2] = dose: 200.0 mg/kg/injection, schedule: Q01DX009 (ip), vehicle: saline
[3] = dose: 200.0 mg/kg/injection, schedule: Q04DX003 (ip), vehicle: saline
[4] = dose: 400.0 mg/kg/injection, schedule: Q04DX003 (ip), vehicle: saline
[5] = dose: 50.0 mg/kg/injection, schedule: Q01DX009 (ip), vehicle: saline with Tween-80
[6] = dose: 100.0 mg/kg/injection, schedule: Q01DX009 (ip), vehicle: saline
[7] = dose: 400.0 mg/kg/injection, schedule: Q04DX003 (ip), vehicle: Klucel (hydroxypropylcellulose) (HPC)
[8] = dose: 400.0 mg/kg/injection, schedule: Q01DX001 (ip), vehicle: saline
[9] = dose: 200.0 mg/kg/injection, schedule: Q04DX002 (ip), vehicle: saline with Tween-80
[10] = dose: 400.0 mg/kg/injection, schedule: Q04DX002 (ip), vehicle: saline with Tween-80
[11] = dose: 400.0 mg/kg/injection, schedule: Q04DX003 (ip), vehicle: saline with Tween-80
[12] = dose: 200.0 mg/kg/injection, schedule: Q01DX009 (ip), vehicle: saline with Tween-80
[13] = dose: 400.0 mg/kg/injection, schedule: Q04DX002 (ip), vehicle: Klucel (hydroxypropylcellulose) (HPC)

For CCOC(=O)Nc1cncc(NC(=O)OCC)n1, which survivor count (dose: 400.0 mg/kg/injection, schedule: Q01DX009 (ip), vehicle: water) is on record?
Its survivor count is 3 of 6.

For CCOC(=O)C(CC(C)C)NC(=O)C(N)Cc1ccc(N(CCCl)CCCl)cc1 (centres undefined), which T/C (dose: 5.0 mg/kg/injection, schedule: Q01DX009 (ip), vehicle: water) is on record?
Its T/C is 131 % of control.

What about the T/C (dose: 10.0 mg/kg/injection, schedule: Q01DX009 (ip), vehicle: water) of the same compound?
Its T/C is 142 % of control.

What about the T/C (dose: 20.0 mg/kg/injection, schedule: Q01DX009 (ip), vehicle: water) of the same compound?
Its T/C is 131 % of control.

And the survivor count (dose: 40.0 mg/kg/injection, schedule: Q01DX009 (ip), vehicle: water)?
Its survivor count is 4 of 6.

And the survivor count (dose: 80.0 mg/kg/injection, schedule: Q01DX009 (ip), vehicle: water)?
Its survivor count is 0 of 6.

CN1CC(COC(=O)CCc2ccc(N(CCCl)CCCl)cc2)C=C2c3cccc4[nH]cc(c34)C[C@H]21 (some centres undefined) was tested. Which T/C (dose: 25.0 mg/kg/injection, schedule: Q01DX009 (ip), vehicle: saline) did it give?
The T/C was 133 % of control.

What about the T/C [1] of the same compound?
Its T/C is 130 % of control.

What about the survivor count [2] of the same compound?
Its survivor count is 1 of 6.

What about the survivor count [3] of the same compound?
Its survivor count is 3 of 6.

What about the T/C [4] of the same compound?
Its T/C is 130 % of control [4 of 6 alive].

What about the survivor count [4] of the same compound?
Its survivor count is 0 of 6.

What does the source list for NC(=S)/C(N)=N/Nc1ccc(Cl)cc1?
survivor count [5]: 0 of 3; T/C (dose: 50.0 mg/kg/injection, schedule: Q01DX009 (ip), vehicle: saline): 126 % of control; survivor count [6]: 0 of 3; survivor count [2]: 0 of 3

How did the survivor count [7] turn out when [N-]=[N+]=C1C(C(=O)c2ccccc2)=NN=C1c1ccccc1 was run?
The survivor count was 5 of 6.

What does the source list for C(CCSC1=NCCN1)CSC1=NCCN1?
survivor count (dose: 200.0 mg/kg/injection, schedule: Q04DX002 (ip), vehicle: saline): 1 of 3; survivor count (dose: 400.0 mg/kg/injection, schedule: Q04DX002 (ip), vehicle: saline): 0 of 3

Which survivor count (dose: 400.0 mg/kg/injection, schedule: Q01DX001 (ip), vehicle: Klucel (hydroxypropylcellulose) (HPC)) does the source give for COc1ccc(-n2c(=O)c(N=Nc3ccccc3OC)c(O)n(-c3ccccc3C)c2=S)cc1 here?
Its survivor count is 3 of 6.

CNC(=O)NC(=O)C(C)(C)Oc1ccc(Cl)cc1 was tested. Which survivor count [4] did it give?
The survivor count was 3 of 3.

For CC1=C2[C@H]3OC(=O)[C@@H](C)[C@@H]3CC[C@@]2(C)C=C/C1=N\O, which survivor count [8] is on record?
The survivor count was 0 of 6.

How did the T/C (dose: 200.0 mg/kg/injection, schedule: Q04DX003 (ip), vehicle: saline with Tween-80) turn out when N#CC(Oc1ccccc1)c1ccccc1 (centres undefined) was run?
The T/C was 132 % of control.

What does the source list for CCOC(=O)C1CC2CCC1CC2 (centres undefined)?
survivor count [9]: 0 of 3; survivor count [10]: 0 of 3

How did the survivor count [11] turn out when CCCC(O)(CC)CCC was run?
The survivor count was 3 of 6.

Which results are given for COc1cc2ccnc(Cc3ccccc3)c2cc1OC?
survivor count [12]: 3 of 6; survivor count (dose: 400.0 mg/kg/injection, schedule: Q01DX009 (ip), vehicle: saline with Tween-80): 0 of 6; survivor count [11]: 4 of 6

For C=CS(=O)CCCCCCCC (centres undefined), which survivor count [13] is on record?
The survivor count was 1 of 3.

CN(C)CCCC1(c2ccccc2)SC(C)(C)c2ccc(Cl)cc21 (centres undefined) was tested. Which survivor count (dose: 100.0 mg/kg/injection, schedule: Q01DX009 (ip), vehicle: Klucel (hydroxypropylcellulose) (HPC)) did it give?
The survivor count was 1 of 6.

What about the survivor count (dose: 200.0 mg/kg/injection, schedule: Q01DX009 (ip), vehicle: Klucel (hydroxypropylcellulose) (HPC)) of the same compound?
The survivor count was 0 of 6.

What about the survivor count (dose: 400.0 mg/kg/injection, schedule: Q01DX009 (ip), vehicle: Klucel (hydroxypropylcellulose) (HPC)) of the same compound?
Its survivor count is 0 of 6.

Which results are given for C=C(Br)CN(C)C(C)=O?
survivor count [1]: 2 of 6; survivor count [3]: 0 of 6; survivor count [4]: 0 of 6

How did the survivor count (dose: 0.78 mg/kg/injection, schedule: Q01DX009 (ip), vehicle: saline with Tween-80) turn out when CCCCCCCCCCCCCCCCCC[n+]1ccccc1 was run?
Its survivor count is 2 of 3.

What about the survivor count (dose: 1.56 mg/kg/injection, schedule: Q01DX009 (ip), vehicle: saline with Tween-80) of the same compound?
Its survivor count is 0 of 3.

What about the survivor count (dose: 3.12 mg/kg/injection, schedule: Q01DX009 (ip), vehicle: saline with Tween-80) of the same compound?
The survivor count was 0 of 3.

What about the survivor count [5] of the same compound?
The survivor count was 0 of 3.

What about the survivor count (dose: 100.0 mg/kg/injection, schedule: Q01DX009 (ip), vehicle: saline with Tween-80) of the same compound?
The survivor count was 0 of 3.

What about the survivor count [12] of the same compound?
Its survivor count is 0 of 3.

What does the source list for CC(N)c1ccccc1Cl (centres undefined)?
survivor count [1]: 6 of 6; survivor count [3]: 4 of 6; survivor count [4]: 0 of 6

How did the survivor count (dose: 16.0 mg/kg/injection, schedule: Q01DX009 (ip), vehicle: carboxymethylcellulose (CMC)) turn out when COC1=C(N=[N+]=[N-])C(=O)C(OC)=C(N=[N+]=[N-])C1=O was run?
The survivor count was 6 of 6.

And the survivor count (dose: 20.0 mg/kg/injection, schedule: Q01DX001 (ip), vehicle: carboxymethylcellulose (CMC))?
The survivor count was 2 of 4.

What about the survivor count (dose: 32.0 mg/kg/injection, schedule: Q01DX009 (ip), vehicle: carboxymethylcellulose (CMC)) of the same compound?
Its survivor count is 0 of 6.

And the survivor count (dose: 40.0 mg/kg/injection, schedule: Q01DX001 (ip), vehicle: carboxymethylcellulose (CMC))?
Its survivor count is 1 of 4 and 3 of 6.

What about the survivor count (dose: 64.0 mg/kg/injection, schedule: Q01DX009 (ip), vehicle: carboxymethylcellulose (CMC)) of the same compound?
Its survivor count is 0 of 6.

What about the survivor count (dose: 80.0 mg/kg/injection, schedule: Q01DX001 (ip), vehicle: carboxymethylcellulose (CMC)) of the same compound?
The survivor count was 0 of 6.

And the survivor count (dose: 100.0 mg/kg/injection, schedule: Q01DX001 (ip), vehicle: other)?
The survivor count was 1 of 6.

What about the survivor count (dose: 200.0 mg/kg/injection, schedule: Q01DX001 (ip), vehicle: other) of the same compound?
Its survivor count is 0 of 6.

What about the survivor count (dose: 215.0 mg/kg/injection, schedule: Q01DX009 (ip), vehicle: saline) of the same compound?
The survivor count was 5 of 6.

What about the survivor count (dose: 215.0 mg/kg/injection, schedule: Q04DX003 (ip), vehicle: saline) of the same compound?
Its survivor count is 5 of 6.

What about the survivor count (dose: 330.0 mg/kg/injection, schedule: Q01DX009 (ip), vehicle: saline) of the same compound?
The survivor count was 0 of 6.

What about the survivor count (dose: 400.0 mg/kg/injection, schedule: Q01DX001 (ip), vehicle: other) of the same compound?
The survivor count was 0 of 6.

With O=P(CCl)(Oc1ccc(Cl)cc1)Oc1ccc(Cl)cc1 as the compound, how does the survivor count [8] read?
The survivor count was 2 of 4.

With Cc1cc(C)c(NC2=NCCS2)cc1C as the compound, how does the survivor count [9] read?
The survivor count was 2 of 3.

What about the survivor count [10] of the same compound?
Its survivor count is 0 of 3.

How did the survivor count [6] turn out when COC12C[C@]34CCCN3CC(O1)c1cc3c(cc1[C@@H]4[C@@H]2O)OCO3 was run?
Its survivor count is 5 of 6.

O=c1[nH]c2ccccc2nc1C(Cl)(Cl)Cl was tested. Which survivor count [13] did it give?
The survivor count was 1 of 3.

For S=C(S)NNc1ccccc1, which survivor count [12] is on record?
The survivor count was 1 of 6.

Which results are given for N#Cc1cccc(C[P+](c2ccccc2)(c2ccccc2)c2ccccc2)c1?
survivor count (dose: 50.0 mg/kg/injection, schedule: Q01DX009 (ip), vehicle: Klucel (hydroxypropylcellulose) (HPC)): 1 of 6; survivor count (dose: 100.0 mg/kg/injection, schedule: Q04DX003 (ip), vehicle: Klucel (hydroxypropylcellulose) (HPC)): 1 of 6; survivor count (dose: 200.0 mg/kg/injection, schedule: Q04DX003 (ip), vehicle: Klucel (hydroxypropylcellulose) (HPC)): 0 of 6; survivor count [7]: 0 of 6

How did the T/C (dose: 75.0 mg/kg/injection, schedule: Q01DX001 (ip), vehicle: carboxymethylcellulose (CMC)) turn out when COc1cc(N(CCCl)CCCl)c(OC)cc1C=Nc1ccc(-c2csc(Cc3ccccc3)n2)c(Cl)c1 was run?
The T/C was 148 % of control.

And the T/C (dose: 132.0 mg/kg/injection, schedule: Q01DX001 (ip), vehicle: carboxymethylcellulose (CMC))?
Its T/C is 130 % of control.

What about the T/C (dose: 200.0 mg/kg/injection, schedule: Q01DX001 (ip), vehicle: carboxymethylcellulose (CMC)) of the same compound?
The T/C was 136 % of control.

And the survivor count (dose: 200.0 mg/kg/injection, schedule: Q01DX009 (ip), vehicle: carboxymethylcellulose (CMC))?
The survivor count was 2 of 6.

And the survivor count (dose: 300.0 mg/kg/injection, schedule: Q01DX009 (ip), vehicle: carboxymethylcellulose (CMC))?
The survivor count was 1 of 6.

How did the survivor count (dose: 200.0 mg/kg/injection, schedule: Q01DX001 (ip), vehicle: saline with Tween-80) turn out when COC(=O)C1=C(O)C(=O)N(c2ccccc2)C1 was run?
Its survivor count is 1 of 3.

What about the survivor count (dose: 400.0 mg/kg/injection, schedule: Q01DX001 (ip), vehicle: saline with Tween-80) of the same compound?
Its survivor count is 0 of 3.
